Results published in PubChem BioAssay AID1273 (Columbia University Molecular Screening Center, 2008).
Some of the results follow. The main result of the screen is listed elsewhere. These columns were measured beside it and carry no call. The list favours compounds with an active or inconclusive main result.

Test: insulin gene promoter suppression in islet cells – imaging, TRM-6 cells (human fetal islet line), eGFP reporter, cell count, primary screen (AID 1273;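 also: cells exposed to compound for 48 h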)
Details: measured here: cell count, toxicity, at 2 µM

| SMILES | normalized cell count [%] |
| --- | --- |
| CN1CCC(N(C)c2ncnc3ccc(Br)cc23)CC1 | 153 |
| Cn1c(=O)cc(SCC(=O)N2CCC3(CC2)OCCO3)c2ccc(Cl)cc21 | 136 |
| O=c1c2cc(Br)ccc2[nH]c(=S)n1-c1ccccc1 | 165 |
| CC1CN(CCc2ccccc2)CC(C)O1 (stereo unspecified) | 109 |
| O=C(c1cc2cc3ccc(Cl)cc3nc2o1)N1CCC2(CC1)OCCO2 | 143 |
| C[C@H]1O[C@@H](O[C@H]2[C@@H](O)C[C@H](O[C@H]3[C@@H](O)C[C@H](O[C@H]4CC[C@@]5(C)[C@H](CC[C@@H]6[C@@H]5CC[C@]5(C)[C@@H](C7=CC(=O)OC7)CC[C@]65O)C4)O[C@@H]3C)O[C@@H]2C)C[C@H](O)[C@@H]1O | 0.41 |
| CC1=C(C(=O)N2CCC3(CC2)OCCO3)C2(CCC(C)CC2)OC1=O (stereo unspecified) | 78.6 |
| CSc1ccc(C(c2c(O)c3ccccc3oc2=O)c2c(C)n(C)n(-c3ccccc3)c2=O)cc1 (stereo unspecified) | 109 |
| CCCCn1c(O)c(C(CC)=NCc2ccc(F)cc2)c(=O)[nH]c1=O | 23.5 |
| c1ccc2c(c1)Nc1ccccc1S2 | 150 |
| N/C(=N/[N+](=O)[O-])N1CCN(C(=O)c2ccc(Cl)cc2)CC1 | 157 |
| Cc1cc2c(C(C)C)c(O)c(O)c(C=O)c2c(O)c1-c1c(C)cc2c(C(C)C)c(O)c(O)c(C=O)c2c1O | 46.3 |
| CCn1c(O)c(C=Nc2cc(Cl)ccc2Cl)c(=O)n(CC)c1=O | 109 |
| CC(Cc1ccccc1)NC(=O)/C=C/C(=O)O (stereo unspecified) | 55.8 |
| CN1CSC(=S)N(C)C1 | 101 |
| CC(C)(C)c1ccc(O)c(CN2CCN(c3ccccc3)CC2)c1 | 62.8 |
| COc1ccc(N=Cc2c(O)n(-c3ccc(C)cc3)c(=O)[nH]c2=O)cc1 | 77.5 |
| CCOC(=O)c1c(-c2ccccc2)oc2ccc(OC(=O)N(C)C)cc12 | 171 |
| Cc1nn(-c2ccccc2)c2c1C(c1ccc3c(c1)OCO3)SCC(=O)N2 (stereo unspecified) | 103 |
| Cc1ccccc1-n1c(-c2ccco2)nc2ccccc2c1=O | 180 |
| Cc1ccc(-c2cc(-c3ccc(C)cc3)[n+](C)o2)cc1 | 83 |
| COc1ccc(C(=O)CN2CCOCC2)cc1F | 48.3 |
| NC(=O)c1cn(C2OC(CO)C(O)C2O)c2ncnc(N)c12 (stereo unspecified) | 4.29 |

| SMILES | normalized cell count [%] |
| --- | --- |
| CC(=O)C1=C(C)OC(N)=C(C(=O)OC(C)C)C12C(=O)Nc1ccccc12 (stereo unspecified) | 39.8 |
| CCN1CCN(c2ncnc3ccc(Br)cc23)CC1 | 111 |
| COc1ccc(C(c2c(O)c3ccccc3oc2=O)c2c(C)n(C)n(-c3ccccc3)c2=O)cc1 (stereo unspecified) | 74.8 |
| O=P(O)(O)COc1ccccc1O | 67.2 |
| C=CCn1c(O)c(C(C)=Nc2ccc(C(=O)OCC)cc2)c(=O)[nH]c1=O | 97.8 |
| O=C(CCC(=O)N1CCC2(CC1)OCCO2)Nc1nnc(C(F)(F)F)s1 | 75.9 |
| O=C(C1CC(=O)N(C2CCCCCCC2)C1)N1CCC2(CC1)OCCO2 (stereo unspecified) | 89.3 |
| CN(C)C(=S)SSC(=S)N(C)C | 0 |
| Cc1cc(C=O)c(C)n1C1CCCCC1 | 74.7 |
| CN(CC(=O)Nc1ccccc1-c1ccccc1)C1CCCCC1 | 244 |
| CCCCn1c(O)c(C(C)=NC(C)c2ccccc2)c(=O)[nH]c1=O (stereo unspecified) | 116 |
| O=c1[nH]c2ccccc2c(=O)n1-c1cccc(Cl)c1 | 74.9 |
| Fc1ccc(NC2=NCCS2)cc1Cl | 113 |
| CC12CN3CC(C)(CN(C1)C31CCOCC1)C2=O | 123 |
| CC(=O)NC1CC2CCC(C1)N2 (stereo unspecified) | 98.9 |
| CC(C)=CCC12CN3CCN(CC(C3)C1=O)C2 | 98 |
| Nc1nnc(CCN2CCCCC2)s1 | 40.2 |
| O=S(=O)(c1ccccc1)N1CN2CCN(C2)C1 | 100 |
| CN(C)c1cccc2c(C#N)ccc(N(C)C)c12 | 42.9 |
| CC(=O)Nc1ccccc1OP1(=O)COc2ccccc2OC1 | 40.3 |
| O=C(O)c1cccc2c1NC(c1cccc([N+](=O)[O-])c1)C1CC(Sc3ccccc3[N+](=O)[O-])C(Cl)C21 (stereo unspecified) | 173 |
| O=C1CC(C(=O)N2CCC3(CC2)OCCO3)CN1CCc1ccccc1 (stereo unspecified) | 124 |
| CCN1C(=O)C(=C2C=C(C)N(Cc3ccco3)C(C)=C2)C(=O)N(CC)C1=S | 139 |
